This passage reports survivor count and T/C results from PubChem BioAssay AID330 (DTP/NCI, 2004).

In the test the test system is P388 leukemia ip, CD2F1 mice, survival T/C. Description: NCI In Vivo Anticancer Drug Screen. Data for tumor model P388 Leukemia (intraperitoneal) in CD2F1 (CDF1) mice. The settings on record: T/C endpoint: median survival time, higher T/C = longer survival.
Where [1] appears, read: dose: 6.25 mg/kg/injection, schedule: Q01DX005 (ip), vehicle: saline.
Setting [2] is: dose: 50.0 mg/kg/injection, schedule: Q01DX005 (ip), vehicle: saline.
[3] abbreviates: dose: 100.0 mg/kg/injection, schedule: Q01DX005 (ip), vehicle: saline.
Where [4] appears, read: dose: 200.0 mg/kg/injection, schedule: Q01DX005 (ip), vehicle: saline.
Setting [5] is: dose: 200.0 mg/kg/injection, schedule: Q01DX009 (ip), vehicle: saline with Tween-80.
Setting [6] is: dose: 100.0 mg/kg/injection, schedule: Q01DX005 (ip), vehicle: saline with Tween-80.

The list does not hold the whole screen: it is rich in T/C values a quarter to a half above the control, in often repeated tests (any T/C) and in doses without a T/C. Other doses and runs of a compound stand elsewhere. T/C is the treated group as % of the vehicle group. Some doses have a count of surviving animals in place of a T/C: the source holds a T/C of zero for them, seemingly a mark for toxic or unscored doses. Some survivor counts are full or nearly so, which does not show that the dose was tolerated: survival well below the control is almost never listed, so the zero probably covers shortened survival too. Survivors were counted at the toxicity check, usually on the fifth day, unless a day is given; later deaths do not show. Schedule codes are those of the source, taken here to give the interval after Q, in days (D) or hours (H), and the number of doses after X. Some entries were tested several times; the values are given in rising order. Where survival is the endpoint, this PubChem deposit counts one and a half times the control or more as active, and values a quarter to a half above the control carry no call in these data; other NCI protocols may use other cut-offs.

Turning to `CCN=C(c1ccc(NC(=O)c2ccc(C(=O)Nc3ccc(C(=NCC)N(CC)CC)cc3)c(Cl)c2)cc1)N(CC)CC`, the survivor count reads like this: (dose: 0.78 mg/kg/injection, schedule: Q01DX005 (ip), vehicle: saline) 0 of 6; (dose: 1.56 mg/kg/injection, schedule: Q01DX005 (ip), vehicle: saline) 0 of 6; (dose: 3.12 mg/kg/injection, schedule: Q01DX005 (ip), vehicle: saline) 0 of 6; under setting [1], 0 of 6; (dose: 12.5 mg/kg/injection, schedule: Q01DX005 (ip), vehicle: saline) 0 of 6; (dose: 25.0 mg/kg/injection, schedule: Q01DX005 (ip), vehicle: saline) 0 of 6. In addition, the survivor count is on record as 0 of 6 under setting [2], 0 of 6 under setting [3] and 0 of 6 under setting [4].
On to `CC(=O)/C=N/OC(=O)c1ccccc1`, for which, under “dose: 400.0 mg/kg/injection, schedule: Q04DX002 (ip), vehicle: saline with Tween-80”, the survivor count is on record as 1 of 6.
`CC(=O)Oc1ccc(OC(C)=O)c(CBr)c1CBr`: the survivor count was 6 of 6 (dose: 200.0 mg/kg/injection, schedule: Q04DX002 (ip), vehicle: Klucel (hydroxypropylcellulose) (HPC)) and 5 of 6 (dose: 400.0 mg/kg/injection, schedule: Q04DX002 (ip), vehicle: Klucel (hydroxypropylcellulose) (HPC)).
For `Cc1noc(NS(=O)(=O)c2ccc(N=Nc3cc(N=Nc4ccc(S(=O)(=O)Nc5onc(C)c5C)cc4)c4c(NC(=O)C(Cl)Cl)cccc4c3OC(=O)C(Cl)Cl)cc2)c1C`, the survivor count under setting [5] is 2 of 6.
`CCOC(=O)Nc1ccc(C2OCCS2)cc1` (stereo unspecified): the survivor count under setting [6] is given as 6 of 6.
For `CCCCCCC(C)[N+](C)(C)C` (stereo unspecified), the survivor count is, setting by setting: (dose: 100.0 mg/kg/injection, schedule: Q04DX003 (ip), vehicle: saline) 0 of 6; (dose: 200.0 mg/kg/injection, schedule: Q04DX003 (ip), vehicle: saline) 0 of 6; (dose: 400.0 mg/kg/injection, schedule: Q04DX003 (ip), vehicle: saline) 0 of 6.
In the case of `Cc1ccc(C)[nH]1`, the survivor count is, setting by setting: (dose: 100.0 mg/kg/injection, schedule: Q01DX001 (ip), vehicle: alcohol) 0 of 6; (dose: 200.0 mg/kg/injection, schedule: Q01DX001 (ip), vehicle: alcohol) 0 of 6.
`N#CN=[N+]([O-])c1ccccc1`: the survivor count reads like this: (dose: 50.0 mg/kg/injection, schedule: Q04DX003 (ip), vehicle: Klucel (hydroxypropylcellulose) (HPC)) 4 of 6; (dose: 100.0 mg/kg/injection, schedule: Q04DX003 (ip), vehicle: Klucel (hydroxypropylcellulose) (HPC)) 1 of 6; (dose: 200.0 mg/kg/injection, schedule: Q04DX003 (ip), vehicle: Klucel (hydroxypropylcellulose) (HPC)) 0 of 6.
Consider `c1ccc2c(NCC3CCNCC3)c3ccccc3nc2c1`, for which the survivor count (dose: 100.0 mg/kg/injection, schedule: Q04DX002 (ip), vehicle: saline with Tween-80) was 1 of 6.
With `CCc1c2c(cc3c1[nH]c1ccccc13)C(=O)NC2=O`, the survivor count (dose: 100.0 mg/kg/injection, schedule: Q01DX005 (ip), vehicle: Klucel (hydroxypropylcellulose) (HPC)) is reported as 5 of 5.
`Cc1c(O)c2ccccc2c2c1sc(NCCCN(CCO)CCO)[n+]2C`: the survivor count (dose: 60.0 mg/kg/injection, schedule: Q01DX005 (ip), vehicle: saline) is recorded as 2 of 6; the survivor count (dose: 120.0 mg/kg/injection, schedule: Q01DX005 (ip), vehicle: saline) is 0 of 6; the survivor count (dose: 240.0 mg/kg/injection, schedule: Q01DX005 (ip), vehicle: saline) is 0 of 6.
Take `CC(C)NC(=O)N(CCCCBr)N=O`: the T/C by setting is: (dose: 25.0 mg/kg/injection, schedule: Q01DX009 (ip), vehicle: Klucel (hydroxypropylcellulose) (HPC)) 127 % of control; (dose: 50.0 mg/kg/injection, schedule: Q01DX009 (ip), vehicle: Klucel (hydroxypropylcellulose) (HPC)) 135 % of control; (dose: 100.0 mg/kg/injection, schedule: Q01DX009 (ip), vehicle: Klucel (hydroxypropylcellulose) (HPC)) 137 and 145 % of control. Where the note is “dose: 200.0 mg/kg/injection, schedule: Q01DX009 (ip), vehicle: Klucel (hydroxypropylcellulose) (HPC)”, the survivor count is 5 of 6 and 6 of 6.
`COc1ccc(S(=O)(=O)N/N=C/C(=O)OCOC(=O)C(C)(C)C)cc1`: the T/C by setting is: (dose: 10.0 mg/kg/injection, schedule: Q01DX005 (ip), vehicle: other) 130 % of control; (dose: 20.0 mg/kg/injection, schedule: Q01DX005 (ip), vehicle: other) 125 % of control; (dose: 20.0 mg/kg/injection, schedule: Q01DX005 (ip), vehicle: saline + Tween-80 + alcohol) 133 % of control; (dose: 40.0 mg/kg/injection, schedule: Q01DX005 (ip), vehicle: other) 133 % of control. The survivor count is recorded as 6 of 6 (dose: 40.0 mg/kg/injection, schedule: Q01DX005 (ip), vehicle: saline + Tween-80 + alcohol); 3 of 6 (dose: 50.0 mg/kg/injection, schedule: Q01DX005 (ip), vehicle: saline + Tween-80 + alcohol); 0 of 6 (dose: 100.0 mg/kg/injection, schedule: Q01DX005 (ip), vehicle: saline + Tween-80 + alcohol); 0 of 6 (dose: 200.0 mg/kg/injection, schedule: Q01DX005 (ip), vehicle: saline + Tween-80 + alcohol).
Turning to `O=C1c2ccccc2C(=O)N1CC[P+](C1CCCCC1)(C1CCCCC1)C1CCCCC1`, the T/C is, setting by setting: (dose: 3.13 mg/kg/injection, schedule: Q01DX009 (ip), vehicle: saline with Tween-80) 125 % of control; (dose: 12.5 mg/kg/injection, schedule: Q01DX009 (ip), vehicle: saline with Tween-80) 125 % of control; (dose: 25.0 mg/kg/injection, schedule: Q01DX009 (ip), vehicle: saline with Tween-80) 125 % of control. Also, the survivor count (dose: 100.0 mg/kg/injection, schedule: Q01DX009 (ip), vehicle: water) was 1 of 6.
`C[CH2][Sn]1([CH2]C)[c]2ccccc2Oc2cccc[c]21`: the survivor count under setting [5] was 0 of 6.
Consider `CCOC(=O)Cc1cc2cc(=O)[nH]cc2cc1C`, for which the survivor count (dose: 100.0 mg/kg/injection, schedule: Q01DX009 (ip), vehicle: distilled water + Tween-80) is 6 of 6.
As for `CCc1ccc2c(-c3ccccc3)c3c(-c4ccccc4)c4ccccc4c(-c4ccccc4)c3c(-c3ccccc3)c2c1`, the survivor count under setting [6] was 3 of 4 and the survivor count (dose: 200.0 mg/kg/injection, schedule: Q01DX005 (ip), vehicle: saline with Tween-80) was 5 of 5.
Turning to `O=S1(=O)CS(=O)(=O)OCCCCO1`, under setting [1], the T/C is 142 % of control. In addition, the survivor count was 5 of 5 and 6 of 6 under setting [2]; 2 of 5 under setting [3]; 0 of 5 under setting [4].
Consider `CC(/C=N/Nc1ccccc1)=N\N=c1/scc(-c2ccc(Br)cc2)n1-c1ccc(Cl)cc1`, for which the survivor count is reported as 6 of 6 (dose: 100.0 mg/kg/injection, schedule: Q01DX001 (ip), vehicle: saline with Tween-80); 6 of 6 (dose: 200.0 mg/kg/injection, schedule: Q01DX001 (ip), vehicle: saline with Tween-80); 6 of 6 (dose: 400.0 mg/kg/injection, schedule: Q01DX001 (ip), vehicle: saline with Tween-80).
For `CC(=O)c1cc(C)oc1C`, the survivor count (dose: 200.0 mg/kg/injection, schedule: Q01DX009 (ip), vehicle: saline) is on record as 1 of 6.
Consider `C=c1cc2c(cc1=C)C(=O)c1ccccc1C2=O`, for which, for the setting “dose: 120.0 mg/kg/injection, schedule: Q01DX005 (ip), vehicle: saline with Tween-80”, the survivor count was 6 of 6.
